From patent US10190166B2, “Methods for identifying dendritic cell subsets, for determining if a patient is developing a regulatory or an effector immune response, and for determining response to immunotherapy” (STALLERGENES, priority 2011, dated 2019)
For at least one compound, name, drawing or mass did not settle the structure.

What was measured:
monocyte-derived DCs [1] = test: Quantitative real-time PCR of marker genes in treated DCs
monocyte-derived DCs [2] = test: Western blot analysis of marker proteins in treated DCs; format: cell-based, human
Method: NuPAGE-Western blotting was carried out according to standard procedures (NuPAGE technical guide, Invitrogen). […] H00004599-[…], 1/500) from Abnova (Taipei, Taiwan), anti-CD71 (Cat. no. […] The rabbit polyclonal serum raised against GILZ was previously described (see […], et al. […] Peroxidase-conjugated goat anti-mouse and anti-rabbit secondary antibodies were both obtained from Jackson Immunoresearch Laboratories (Sufflok, England), and the chemiluminescence detection kit was from Pierce (SuperSignal West Pico Chemiluminescent Substrate, Fisher Scientific, Illkirch, France). Western blot signals were acquired with a CCD camera (Fusion FX7, Vilber-Lourmat, Marnes La Vallée, France) and band volume was quantified using the Bio-1D software (Vilber-Lourmat). β-actin or GAPDH were used as loading controls.

monocyte-derived DCs [3] = test: Cell surface phenotype of treated DCs by flow cytometry; format: cell-based, human
Method: For immuno-fluorescence staining, cells were harvested, washed in PBS and incubated for 20 min at 4° C. with the following mAbs: FITC anti-CD14, FITC anti-CD80, PE anti-CD86, PC5 anti-CD83 (Beckman coulter), FITC anti-ILT2, PE anti-ILT4, PC5 anti-ILT3 (R&D systems) or PE-CD11c (Miltenyi Biotec, Paris, France). Cells were stained with corresponding isotype-matched control mAbs and analyzed by flow cytometry.

monocyte-derived DCs [4] = test: 2D-DIGE analysis of DC subtypes; settings: DEX-DCs
naive CD4+ T cells = test: DC/T coculture with allogeneic naive CD4+ T cells; format: cell-based, human
[5] = tolerogenic DC models (model B)
[6] = tolerogenic DC models (model B), DEX 24 h or differentiation
[7] = treatment during the differentiation step

Row | Compound | expression of tolerogenic genes GILZ, IDO or RALDH1 (monocyte-derived DCs [1]; DEX 24 h treatment) | CATC gene induction (monocyte-derived DCs [1]; [5]) | F13A and GPX1 protein level (monocyte-derived DCs [2]; DEX-DCs in comparison Ctrl-DCs) | IDO, RALDH1 and RALDH2 proteins (monocyte-derived DCs [2]; tolerogenic DC models (model B), ASP 24 h, DEX 24 h or differentiation) | CLIC2, FKBP5, GPX1 and IMDH2 proteins (monocyte-derived DCs [2]; [6]) | F13A, MRC1 and STAB1 proteins (monocyte-derived DCs [2]; [6]) | CD14 expression (monocyte-derived DCs [3]; 24 h treatment) | ILT2 expression (monocyte-derived DCs [3]; 24 h treatment) | expression of ILT2 and ILT4 (monocyte-derived DCs [3]; DEX 24 h treatment) | CD14 expression (monocyte-derived DCs [3]; [7]) | ILT4 expression (monocyte-derived DCs [3]; [7]) | ANXA1, CLIC2, FKBP5, F13A, GPX1, IMDH2, OSF1, TPP1 protein expression (monocyte-derived DCs [4]) | IL-10 in CD4+ T cells cocultured with treated DCs (naive CD4+ T cells; coculture 5 days) | DC polarization induced from immature monocyte derived DCs (naive CD4+ T cells; screening of approximately 40 agents) | ANXA1, C1Q, CATC and GPX1 at the mRNA level (monocyte-derived DCs [1]; [5]) | ILT3 expression (monocyte-derived DCs [3]; [7])
1 | C[C@@H]1C[C@H]2[C@@H]3CCC4=CC(=O)C=C[C@]4(C)[C@@]3(F)[C@@H](O)C[C@]2(C)[C@@]1(O)C(=O)CO [DEX, dexamethasone] | upregulating | detected | slight increase | overexpression | upregulated | upregulated | CD14^neg | ILT2^low | upregulating | CD14^high | ILT4med | specifically overexpressed | upregulated | generation of tolerogenic DCs | – | –
2 | CO[C@H]1C[C@@H]2CC[C@@H](C)[C@@](O)(O2)C(=O)C(=O)N2CCCC[C@H]2C(=O)O[C@H]([C@H](C)C[C@@H]2CC[C@@H](O)[C@H](OC)C2)CC(=O)[C@H](C)/C=C(\C)[C@@H](O)[C@@H](OC)C(=O)[C@H](C)C[C@H](C)/C=C/C=C/C=C/1C [Rapa, Rapamycin] | – | detected | – | – | upregulated | – | – | – | – | CD14^med | – | – | – | – | upregulation | ILT3^low
